These are yes or no findings as the source states them, for the method shown. In cells and extracts the contact can be indirect. For some assays here: A result given as binding can be weak or reduced; the word gives no strength. Where a sequence is shown, tags or fusion partners need not be part of it.
Tests used:
[1] = target: Myc-DCAF11R432A (N. crassa); test: co-IP; lysates of N. crassa strains co-expressing a Myc-tagged and a Flag-tagged protein; immunoprecipitation with c-Myc antibody (stated for Figures 6A, 8D, 8E; not stated for Figure 8A), western blot with c-Myc and Flag antibodies
Myc-DCAF11 (N. crassa) = test: as above

binding [1]: no binding
binding (Myc-DCAF11 (N. crassa)): binds
B1: Flag-Cul4 (protein, UniProt Q7RZU1 1-1039)
chain: MPSNSTANPSELSRDNNNNNNNNNNNNNNNNNNNITTSHLHQHTPSSPPQATPTKRRFDDLNLKDKGAQQSHLHAAASSTTNTAAPNKRSRSELFAASSAVHPTTATTPPTMSAKLKGKRPASGPPEVIDLTQGSNNSAGSSPVATSSHSDIRGPPLSSSHSTGRTSTAPLNPKGGGMATGKTPGGTNYLQTHIGARRLVVKNLRPVATQTQTEEAHYARIRGDLDTALRAIFSGHGAGAGAGAGAAPALGGYSPSPGGPGGQSRSGAAGNNTTTGGQPMEKLYRGVEDICRRGKKESGELYEWLKDRCKGWLNSDEVLKSLLAAAPSIASDMGGEEDVILLRAVLAAWKRWIAQLLVIRWIFSYLDRSYLLPGGSGTSAEGKGKSASGKREGPTSVNDMGISAFRSAMYSSRSRNGANMLTIGARVVNAVCVLVMFDRLDDSRFDSQLLRESVAMLRLWGVYGKELEPKFINESREYVRRFAEERSESCGLKDYIVACERLLNKESERCDVYNFDSTTKRQLKDDAHDILIFNYAEKLLDSGSVAKLLDANDLDSIKALYELLKLSGIQKRLKGPWEQYIRKAGAAIVSDTARGDEMIIRILQLRRALDVMVRDAFGRDEDFTYGLRDAFGFFINDKSVSSSWNTGTSKVGEMIAKHIDMLLRGGLKTLPKALLSDVKDRQDAERSGIASTADEDAELDRQLDHSLELFRFIQGKDIFEAFYKKDLARRLLMGRSASRDAERNMLAKLKNECGSSFTHNLEIMFKDQELAKDEIASYKTWLAGRGEDSPVANSELDLSVNVLSAAAWPTYPDVRVLLPQNVLDHITTFDTYYKSKHTGRRLTWKHNLAHCVVKARFDRGPKELLVSAFQAIVLVLFNEAEEKSPDGILSYEQLASATGMPDPELQRTLQSLACGKTRVLNKHPKGRDVNKTDTFSINKSFTDPKFRVKINQIQLKETKEENKETHERVAQDRQFETQAAIVRIMKSRKKMAHAQLVAEVINQTKQRGAVDAADIKANIEKLIEKDYIEREGGNYVYLA

— publication PMC2996332
